Measurements as given in the supplement of paper PMC10849652.
The list shows a part of the results.

By UniProt entry, the sequences of proteins in these tests, tags left out. Where a name states a change or a piece, a line headed by the entry shows the natural chain unless it says otherwise.
UniProt P62072: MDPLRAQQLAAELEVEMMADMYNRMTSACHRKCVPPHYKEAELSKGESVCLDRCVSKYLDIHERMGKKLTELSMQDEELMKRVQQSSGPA
UniProt Q96N21: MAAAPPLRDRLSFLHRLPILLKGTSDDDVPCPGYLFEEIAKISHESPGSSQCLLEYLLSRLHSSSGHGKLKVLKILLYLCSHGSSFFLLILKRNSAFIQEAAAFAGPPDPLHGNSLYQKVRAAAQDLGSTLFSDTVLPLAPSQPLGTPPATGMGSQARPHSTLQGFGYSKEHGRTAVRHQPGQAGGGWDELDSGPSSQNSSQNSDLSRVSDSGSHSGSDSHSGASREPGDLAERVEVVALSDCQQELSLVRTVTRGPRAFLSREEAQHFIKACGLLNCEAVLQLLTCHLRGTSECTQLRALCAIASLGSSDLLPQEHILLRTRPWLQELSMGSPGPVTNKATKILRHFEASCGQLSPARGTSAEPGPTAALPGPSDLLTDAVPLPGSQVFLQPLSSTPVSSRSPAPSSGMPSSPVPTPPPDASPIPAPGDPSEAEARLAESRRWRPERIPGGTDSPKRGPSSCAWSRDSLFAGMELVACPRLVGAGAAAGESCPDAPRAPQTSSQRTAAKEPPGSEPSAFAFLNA
UniProt O14925: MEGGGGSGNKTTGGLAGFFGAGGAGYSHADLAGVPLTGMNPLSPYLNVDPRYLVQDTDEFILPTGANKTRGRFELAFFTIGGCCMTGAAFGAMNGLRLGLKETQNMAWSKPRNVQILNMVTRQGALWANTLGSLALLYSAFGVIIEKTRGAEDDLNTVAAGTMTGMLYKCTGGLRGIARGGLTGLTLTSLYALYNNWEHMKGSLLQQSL
UniProt Q9NXG2: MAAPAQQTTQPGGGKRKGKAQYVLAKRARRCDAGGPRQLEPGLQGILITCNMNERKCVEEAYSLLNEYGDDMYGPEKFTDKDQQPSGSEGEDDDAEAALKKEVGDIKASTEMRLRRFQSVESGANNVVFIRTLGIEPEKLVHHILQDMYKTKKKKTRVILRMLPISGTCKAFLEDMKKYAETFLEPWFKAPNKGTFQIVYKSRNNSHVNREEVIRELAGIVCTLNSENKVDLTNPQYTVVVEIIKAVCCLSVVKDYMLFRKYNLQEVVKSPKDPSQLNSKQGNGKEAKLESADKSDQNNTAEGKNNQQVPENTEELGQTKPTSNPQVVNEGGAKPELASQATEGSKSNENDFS
UniProt P36897: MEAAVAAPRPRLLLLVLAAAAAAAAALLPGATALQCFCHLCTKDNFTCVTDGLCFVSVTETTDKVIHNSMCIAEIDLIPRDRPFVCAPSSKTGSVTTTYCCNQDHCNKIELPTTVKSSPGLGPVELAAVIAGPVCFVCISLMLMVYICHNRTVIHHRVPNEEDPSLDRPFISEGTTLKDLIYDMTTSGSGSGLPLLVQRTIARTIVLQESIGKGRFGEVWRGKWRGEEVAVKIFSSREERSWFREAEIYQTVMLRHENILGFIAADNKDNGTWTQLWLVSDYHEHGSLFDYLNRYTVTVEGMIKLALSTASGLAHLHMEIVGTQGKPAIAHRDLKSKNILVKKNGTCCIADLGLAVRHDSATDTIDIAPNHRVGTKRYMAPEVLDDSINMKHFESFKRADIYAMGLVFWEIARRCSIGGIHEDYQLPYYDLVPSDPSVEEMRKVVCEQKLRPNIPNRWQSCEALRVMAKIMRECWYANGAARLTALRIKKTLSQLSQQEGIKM
UniProt Q9Y2W1: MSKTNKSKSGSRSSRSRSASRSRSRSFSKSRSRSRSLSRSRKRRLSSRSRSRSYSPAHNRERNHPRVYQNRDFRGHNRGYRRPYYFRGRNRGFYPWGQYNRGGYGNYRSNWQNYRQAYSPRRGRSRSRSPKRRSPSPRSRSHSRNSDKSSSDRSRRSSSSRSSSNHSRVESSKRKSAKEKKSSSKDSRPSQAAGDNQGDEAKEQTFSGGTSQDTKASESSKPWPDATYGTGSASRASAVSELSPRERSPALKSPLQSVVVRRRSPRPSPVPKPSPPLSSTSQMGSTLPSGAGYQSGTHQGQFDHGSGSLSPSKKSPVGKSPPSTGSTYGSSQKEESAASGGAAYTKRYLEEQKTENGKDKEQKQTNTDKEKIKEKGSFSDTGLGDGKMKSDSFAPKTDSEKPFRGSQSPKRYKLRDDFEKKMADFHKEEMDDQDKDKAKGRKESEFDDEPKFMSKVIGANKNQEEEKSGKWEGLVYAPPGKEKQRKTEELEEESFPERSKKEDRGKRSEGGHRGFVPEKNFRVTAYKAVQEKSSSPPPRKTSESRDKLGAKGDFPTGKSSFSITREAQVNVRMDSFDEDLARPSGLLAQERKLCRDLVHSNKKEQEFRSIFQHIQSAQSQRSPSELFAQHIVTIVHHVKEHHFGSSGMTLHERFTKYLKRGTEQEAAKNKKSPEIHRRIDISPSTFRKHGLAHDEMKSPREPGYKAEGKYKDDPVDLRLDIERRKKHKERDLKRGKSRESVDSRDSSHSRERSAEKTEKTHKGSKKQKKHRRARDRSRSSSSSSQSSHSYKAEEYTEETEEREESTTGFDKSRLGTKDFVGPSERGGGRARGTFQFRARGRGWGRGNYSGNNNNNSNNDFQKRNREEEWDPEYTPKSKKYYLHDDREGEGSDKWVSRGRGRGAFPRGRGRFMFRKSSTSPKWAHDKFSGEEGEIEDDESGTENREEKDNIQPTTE
UniProt Q3LXA3: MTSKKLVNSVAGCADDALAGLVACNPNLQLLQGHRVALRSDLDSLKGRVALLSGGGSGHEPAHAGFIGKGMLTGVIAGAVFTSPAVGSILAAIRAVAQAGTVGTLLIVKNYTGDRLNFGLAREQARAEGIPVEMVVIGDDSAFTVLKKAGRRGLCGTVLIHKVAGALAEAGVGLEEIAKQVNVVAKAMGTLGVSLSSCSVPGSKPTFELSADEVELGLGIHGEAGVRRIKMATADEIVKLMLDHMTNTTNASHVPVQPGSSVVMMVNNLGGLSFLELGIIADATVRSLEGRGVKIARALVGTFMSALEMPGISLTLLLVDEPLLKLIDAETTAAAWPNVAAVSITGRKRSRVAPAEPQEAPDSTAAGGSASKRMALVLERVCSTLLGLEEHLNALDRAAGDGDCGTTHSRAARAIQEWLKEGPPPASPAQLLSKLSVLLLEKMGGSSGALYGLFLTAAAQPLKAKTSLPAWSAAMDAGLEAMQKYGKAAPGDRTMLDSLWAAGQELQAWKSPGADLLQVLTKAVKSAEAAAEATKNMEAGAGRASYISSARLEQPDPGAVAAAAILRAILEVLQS
UniProt Q96MV1: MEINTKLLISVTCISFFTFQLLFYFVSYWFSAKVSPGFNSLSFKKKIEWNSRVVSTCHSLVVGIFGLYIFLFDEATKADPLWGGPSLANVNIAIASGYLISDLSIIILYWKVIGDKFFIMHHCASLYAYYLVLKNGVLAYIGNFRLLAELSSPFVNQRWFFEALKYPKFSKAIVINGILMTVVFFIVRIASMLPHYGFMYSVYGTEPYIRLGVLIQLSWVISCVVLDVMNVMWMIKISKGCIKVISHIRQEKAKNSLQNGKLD
UniProt O75347: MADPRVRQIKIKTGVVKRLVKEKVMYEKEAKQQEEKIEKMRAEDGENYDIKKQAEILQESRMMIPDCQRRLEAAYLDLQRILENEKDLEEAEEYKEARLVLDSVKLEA
UniProt Q99426: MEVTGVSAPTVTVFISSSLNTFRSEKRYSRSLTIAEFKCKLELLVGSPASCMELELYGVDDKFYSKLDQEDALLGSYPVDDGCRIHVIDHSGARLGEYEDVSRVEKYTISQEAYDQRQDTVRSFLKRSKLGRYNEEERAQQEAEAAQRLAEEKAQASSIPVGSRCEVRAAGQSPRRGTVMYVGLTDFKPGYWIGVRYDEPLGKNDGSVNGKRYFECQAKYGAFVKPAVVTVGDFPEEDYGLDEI
UniProt Q9BTW9: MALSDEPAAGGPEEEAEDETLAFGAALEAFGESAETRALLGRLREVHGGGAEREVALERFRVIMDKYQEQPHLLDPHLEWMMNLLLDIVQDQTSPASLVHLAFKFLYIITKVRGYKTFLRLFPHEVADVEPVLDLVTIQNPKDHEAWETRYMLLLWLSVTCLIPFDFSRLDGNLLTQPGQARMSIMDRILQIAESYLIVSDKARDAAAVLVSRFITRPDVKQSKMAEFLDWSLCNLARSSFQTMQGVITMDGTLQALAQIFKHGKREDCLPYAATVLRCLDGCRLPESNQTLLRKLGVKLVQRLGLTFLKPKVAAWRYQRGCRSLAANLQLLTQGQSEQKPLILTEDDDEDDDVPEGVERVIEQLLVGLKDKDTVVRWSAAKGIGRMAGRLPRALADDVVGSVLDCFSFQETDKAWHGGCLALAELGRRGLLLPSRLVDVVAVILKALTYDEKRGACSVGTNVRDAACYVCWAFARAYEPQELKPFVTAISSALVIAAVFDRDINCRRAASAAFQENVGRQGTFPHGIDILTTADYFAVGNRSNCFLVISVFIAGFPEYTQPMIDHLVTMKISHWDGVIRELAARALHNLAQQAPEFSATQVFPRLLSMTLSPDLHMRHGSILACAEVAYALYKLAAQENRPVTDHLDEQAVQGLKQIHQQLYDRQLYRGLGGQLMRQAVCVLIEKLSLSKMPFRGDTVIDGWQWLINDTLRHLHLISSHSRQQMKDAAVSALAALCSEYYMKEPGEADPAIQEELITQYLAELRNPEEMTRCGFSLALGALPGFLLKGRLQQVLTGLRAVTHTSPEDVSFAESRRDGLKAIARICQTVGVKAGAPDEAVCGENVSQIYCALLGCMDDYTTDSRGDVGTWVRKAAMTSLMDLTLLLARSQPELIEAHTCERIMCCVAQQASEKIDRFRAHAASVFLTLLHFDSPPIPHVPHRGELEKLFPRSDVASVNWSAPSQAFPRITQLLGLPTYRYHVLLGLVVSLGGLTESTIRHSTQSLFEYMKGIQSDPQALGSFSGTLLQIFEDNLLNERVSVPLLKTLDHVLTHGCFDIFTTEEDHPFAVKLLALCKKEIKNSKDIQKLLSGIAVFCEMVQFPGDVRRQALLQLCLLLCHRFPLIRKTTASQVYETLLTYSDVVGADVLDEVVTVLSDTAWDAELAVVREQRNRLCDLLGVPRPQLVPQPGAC
UniProt Q9Y5J7: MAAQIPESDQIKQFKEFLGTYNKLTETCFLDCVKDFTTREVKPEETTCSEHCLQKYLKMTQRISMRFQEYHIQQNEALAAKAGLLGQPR
UniProt P02787, whole entry, looked up: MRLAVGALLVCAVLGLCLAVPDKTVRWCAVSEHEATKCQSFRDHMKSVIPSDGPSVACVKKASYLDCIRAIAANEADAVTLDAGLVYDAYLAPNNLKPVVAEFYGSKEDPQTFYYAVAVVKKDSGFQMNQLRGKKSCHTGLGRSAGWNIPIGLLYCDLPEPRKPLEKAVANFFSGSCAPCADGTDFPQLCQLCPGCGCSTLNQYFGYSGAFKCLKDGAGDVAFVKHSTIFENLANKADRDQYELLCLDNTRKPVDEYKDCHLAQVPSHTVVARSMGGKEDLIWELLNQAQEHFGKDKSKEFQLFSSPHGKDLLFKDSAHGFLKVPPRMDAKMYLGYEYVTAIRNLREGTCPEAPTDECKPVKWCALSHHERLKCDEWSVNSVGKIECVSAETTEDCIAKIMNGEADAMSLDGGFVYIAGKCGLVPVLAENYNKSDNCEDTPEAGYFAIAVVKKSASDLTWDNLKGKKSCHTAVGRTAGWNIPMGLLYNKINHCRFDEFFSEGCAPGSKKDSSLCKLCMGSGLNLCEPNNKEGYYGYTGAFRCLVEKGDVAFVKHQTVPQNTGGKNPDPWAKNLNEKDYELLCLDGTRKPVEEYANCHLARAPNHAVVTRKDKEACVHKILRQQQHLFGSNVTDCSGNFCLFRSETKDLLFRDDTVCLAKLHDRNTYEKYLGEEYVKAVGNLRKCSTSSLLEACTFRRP
UniProt Q9NWX6: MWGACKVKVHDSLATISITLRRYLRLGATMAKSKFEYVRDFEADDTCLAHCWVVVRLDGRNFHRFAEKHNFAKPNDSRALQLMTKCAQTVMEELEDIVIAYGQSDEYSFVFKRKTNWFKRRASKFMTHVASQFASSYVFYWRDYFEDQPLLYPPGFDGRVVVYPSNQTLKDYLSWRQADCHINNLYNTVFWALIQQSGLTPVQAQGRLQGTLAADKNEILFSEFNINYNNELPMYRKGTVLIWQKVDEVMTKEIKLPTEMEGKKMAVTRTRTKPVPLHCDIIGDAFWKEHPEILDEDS
UniProt O43615: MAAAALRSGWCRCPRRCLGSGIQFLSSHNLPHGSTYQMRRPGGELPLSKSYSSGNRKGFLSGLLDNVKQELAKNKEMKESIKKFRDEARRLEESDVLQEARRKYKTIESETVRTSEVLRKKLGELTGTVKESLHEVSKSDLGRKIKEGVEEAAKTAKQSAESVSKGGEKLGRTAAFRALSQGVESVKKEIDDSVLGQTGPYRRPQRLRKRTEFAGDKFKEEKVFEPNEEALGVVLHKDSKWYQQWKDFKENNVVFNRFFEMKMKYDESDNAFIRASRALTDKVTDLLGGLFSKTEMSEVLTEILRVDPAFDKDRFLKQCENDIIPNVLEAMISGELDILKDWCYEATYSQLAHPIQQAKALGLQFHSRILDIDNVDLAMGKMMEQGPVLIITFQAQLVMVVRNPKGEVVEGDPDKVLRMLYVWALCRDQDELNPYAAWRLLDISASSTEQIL

Legend:
Test in all cases: log2 fold change, soluble protein after heating vs DMSO (PISA); higher = thermal stabilisation; K562 cells, 10 uM, 30 min; active = over 0.2 and 3.5 SD of the protein, either way, in both replicates (recomputed)
[1] = compound: COC1=CC=C(C=C1)CN2C=CC3=C2C=C(C=C3)C(=O)NO
Procedure, shortened: (§1)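 K562 cells (2×10^6 cells/mL) were treated with 10 μM compound for 30 min, and aliquots were heated for 3 min over 48°C-58°C. Pooled aliquots were extracted in PBS with 0.5% NP-40 at 4°C, and the supernatant after 21,000xg for 90 min was measured by TMTpro 16plex LC-MS/MS with channel sums equalised. Reported thermal stability, relative to control samples and from duplicates, is a log2 fold change.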

[2] = compound: CON(C)C(=O)N1N=C(c2cc(F)ccc2F)S[C@@]1(CCCN)c1ccccc1 [filanesib]
Procedure, shortened: as §1

[3] = compound: CO[C@H]1C[C@@H]2CC[C@@H](C)[C@@](O)(O2)C(=O)C(=O)N2CCCC[C@H]2C(=O)O[C@H]([C@H](C)C[C@@H]2CC[C@H](n3cnnn3)[C@H](OC)C2)CC(=O)[C@H](C)/C=C(\C)[C@@H](O)[C@@H](OC)C(=O)[C@H](C)C[C@H](C)/C=C/C=C/C=C/1C [zotarolimus]
Procedure, shortened: as §1

[4] = compound: COc1cc(C(=O)O)ccc1NC(=O)[C@@H]1N[C@@H](CC(C)(C)C)[C@](C#N)(c2ccc(Cl)cc2F)[C@H]1c1cccc(Cl)c1F [idasanutlin]
Procedure, shortened: as §1

[5] = compound: COc1cc(Nc2ncc3c(n2)-c2ccc(Cl)cc2C(c2c(F)cccc2OC)=NC3)ccc1C(=O)O [alisertib]
Procedure, shortened: as §1

[6] = compound: COc1cc2nc(-c3cc(F)ccc3O)nc(N[C@@H]3CNC[C@H]3C(C)(C)O)c2cc1OC
Procedure, shortened: as §1

[7] = compound: COc1cc2ncnc(Nc3ccc(F)c(Cl)c3)c2cc1OCCCN1CCOCC1 [gefitinib]
Procedure, shortened: as §1

[8] = compound: COc1cccc2cc(-c3nc([C@H]4CC[C@H](C(=O)O)CC4)n4ncnc(N)c34)[nH]c12
Procedure, shortened: as §1

[9] = compound: CS(=O)(=O)CCNCc1ccc(-c2ccc3ncnc(Nc4ccc(OCc5cccc(F)c5)c(Cl)c4)c3c2)o1 [lapatinib]
Procedure, shortened: as §1

[10] = compound: CS(=O)(=O)N1CCN(Cc2cc3nc(-c4cccc5[nH]ncc45)nc(N4CCOCC4)c3s2)CC1 [pictilisib]
Procedure, shortened: as §1

Target | log2 fold change [1] | log2 fold change [2] | log2 fold change [3] | log2 fold change [4] | log2 fold change [5] | log2 fold change [6] | log2 fold change [7] | log2 fold change [8] | log2 fold change [9] | log2 fold change [10]
TIMM10 (UniProt P62072) | inactive: -0.043 | inactive: -0.038 | inactive: -0.023 | inactive: -0.019 | inactive: 0.01 | inactive: -0.12 | inactive: 0.015 | inactive: 0.03 | inactive: -0.026 | inactive: 0.008
TEPSIN (UniProt Q96N21) | inactive: 0.172 | – | – | – | – | – | – | – | – | –
TFR2 (UniProt Q9UP52) | inactive: -0.066 | inactive: 0.011 | inactive: -0.06 | inactive: 0.035 | inactive: -0.04 | inactive: 0.011 | inactive: -0.035 | inactive: 0.041 | inactive: -0.011 | inactive: 0.05
TIMM23 (UniProt O14925) | inactive: 0.137 | inactive: -0.03 | inactive: -0.025 | inactive: -0.074 | inactive: -0.076 | inactive: -0.229 | inactive: 0.031 | inactive: 0.044 | inactive: 0.077 | inactive: 0.001
TFB2M (UniProt Q9H5Q4) | inactive: -0.044 | inactive: -0.074 | inactive: -0.001 | inactive: -0.055 | inactive: 0.011 | inactive: 0.006 | inactive: 0.002 | inactive: 0.037 | inactive: -0.001 | inactive: -0.021
TJP1 (UniProt Q07157) | inactive: 0.02 | inactive: 0.035 | inactive: 0.03 | inactive: 0.001 | inactive: -0.059 | inactive: 0.005 | inactive: 0.038 | inactive: 0.055 | inactive: -0.006 | inactive: 0.017
THUMPD1 (UniProt Q9NXG2) | inactive: 0.031 | inactive: 0.009 | inactive: 0.017 | inactive: -0.051 | inactive: -0.05 | inactive: 0.014 | inactive: 0.005 | inactive: 0.016 | inactive: -0.011 | inactive: 0.046
TGFBR1 isoform 2 (UniProt P36897) | inactive: 0.004 | inactive: -0.001 | inactive: -0.217 | inactive: -0.007 | inactive: -0.05 | inactive: 0.06 | inactive: -0.029 | inactive: -0.041 | inactive: 0.063 | inactive: -0.073
THRAP3 (UniProt Q9Y2W1) | inactive: 0.087 | inactive: 0.155 | inactive: -0.117 | inactive: 0.12 | inactive: -0.095 | inactive: -0.127 | inactive: 0.15 | inactive: 0.13 | inactive: 0.066 | inactive: 0.005
TBL1XR1 (UniProt Q9BZK7) | inactive: -0.018 | inactive: -0.022 | inactive: 0.005 | inactive: -0.011 | inactive: 0.012 | inactive: -0.018 | inactive: -0.004 | inactive: 0.043 | inactive: 0.025 | inactive: 0.141
TIPIN (UniProt Q9BVW5) | inactive: 0 | inactive: 0.068 | inactive: 0.016 | inactive: 0 | inactive: -0.008 | inactive: 0.15 | inactive: -0.014 | inactive: 0.029 | inactive: -0.078 | inactive: -0.04
TKFC (UniProt Q3LXA3) | inactive: -0.001 | inactive: -0.022 | inactive: -0.048 | inactive: -0.068 | inactive: -0.037 | inactive: 0.073 | inactive: -0.005 | inactive: 0.069 | inactive: -0.042 | inactive: 0.031
TIMM21 (UniProt Q9BVV7) | inactive: -0.038 | inactive: -0.171 | inactive: 0.03 | inactive: -0.078 | inactive: 0.054 | inactive: -0.205 | inactive: -0.006 | inactive: 0.01 | inactive: -0.008 | inactive: 0.055
THEM4 (UniProt Q5T1C6) | inactive: 0.018 | inactive: -0.043 | inactive: -0.006 | inactive: -0.025 | inactive: -0.039 | inactive: -0.038 | inactive: 0.034 | inactive: 0.026 | inactive: 0.044 | inactive: 0.037
TLCD4 (UniProt Q96MV1) | inactive: 0.115 | inactive: -0.019 | inactive: -0.033 | inactive: -0.082 | inactive: -0.12 | inactive: -0.138 | inactive: -0.022 | inactive: 0.047 | inactive: 0.053 | inactive: -0.182
TBCA (UniProt O75347) | inactive: -0.116 | inactive: -0.039 | inactive: -0.026 | inactive: 0.045 | inactive: -0.045 | inactive: 0.013 | inactive: 0.016 | inactive: 0.055 | inactive: -0.035 | inactive: 0

Target | log2 fold change [1] | log2 fold change [2] | log2 fold change [3] | log2 fold change [4] | log2 fold change [5] | log2 fold change [6] | log2 fold change [7] | log2 fold change [8] | log2 fold change [9] | log2 fold change [10]
TBL2 (UniProt Q9Y4P3) | inactive: 0.011 | inactive: 0.312 | inactive: 0.076 | inactive: 0.108 | inactive: 0.045 | inactive: 0.019 | inactive: 0.014 | inactive: -0.125 | inactive: 0.05 | inactive: -0.033
TBCB (UniProt Q99426) | inactive: 0.011 | inactive: -0.019 | inactive: 0.013 | inactive: 0.019 | inactive: -0.011 | inactive: -0.006 | inactive: 0.037 | inactive: -0.029 | inactive: 0.016 | inactive: -0.005
TBCD (UniProt Q9BTW9) | inactive: -0.017 | inactive: -0.063 | inactive: 0.049 | inactive: -0.091 | inactive: -0.078 | inactive: -0.006 | inactive: 0.022 | inactive: 0.023 | inactive: -0.024 | inactive: 0.04
THOC5 (UniProt Q13769) | inactive: -0.055 | inactive: 0.062 | inactive: 0.004 | inactive: 0.06 | inactive: -0.089 | inactive: 0.028 | inactive: 0.002 | inactive: 0.01 | inactive: -0.037 | inactive: 0.002
TFE3 (UniProt P19532) | inactive: 0.221 | inactive: -0.192 | – | – | – | – | – | – | – | –
TIAL1 isoform 2 (UniProt Q01085) | inactive: 0.033 | inactive: 0.037 | inactive: -0.016 | inactive: 0.026 | inactive: -0.064 | inactive: 0.076 | inactive: -0.007 | inactive: 0.02 | inactive: 0.029 | inactive: 0.01
TIMM9 (UniProt Q9Y5J7) | inactive: 0.051 | inactive: -0.231 | inactive: 0.014 | inactive: -0.006 | inactive: -0.077 | inactive: -0.089 | inactive: 0.042 | inactive: 0.063 | inactive: -0.07 | inactive: 0.097
TELO2 (UniProt Q9Y4R8) | inactive: -0.026 | inactive: 0.113 | inactive: 0.098 | inactive: -0.103 | inactive: -0.16 | inactive: -0.122 | inactive: 0.004 | inactive: -0.125 | inactive: 0.007 | inactive: -0.023
TCAF1 (UniProt Q9Y4C2) | inactive: -0.016 | inactive: 0.024 | inactive: 0.099 | inactive: -0.036 | inactive: 0.005 | inactive: 0.021 | inactive: 0.003 | inactive: -0.031 | inactive: 0.016 | inactive: 0.031
TF (UniProt P02787) | inactive: -0.135 | inactive: 0.094 | inactive: -0.112 | inactive: -0.024 | inactive: -0.092 | inactive: 0.301 | inactive: -0.153 | inactive: 0.4 | inactive: 0.347 | inactive: 0.027
TKT, A0A0B4J1R6 | inactive: -0.241 | inactive: -0.04 | inactive: -0.109 | inactive: -0.166 | inactive: 0.252 | inactive: 0.191 | inactive: 0.019 | inactive: 0.145 | inactive: -0.109 | –
TECR (UniProt Q9NZ01) | inactive: -0.031 | inactive: -0.169 | inactive: -0.041 | inactive: -0.111 | inactive: -0.028 | inactive: -0.102 | inactive: -0.027 | inactive: 0.034 | inactive: -0.012 | inactive: -0.102
TGM2 (UniProt P21980) | inactive: -0.002 | inactive: -0.053 | inactive: -0.021 | inactive: -0.051 | inactive: -0.047 | inactive: 0.032 | inactive: 0.009 | inactive: 0.014 | inactive: -0.037 | inactive: -0.012
THG1L (UniProt Q9NWX6) | inactive: -0.002 | inactive: -0.009 | inactive: -0.022 | inactive: -0.056 | inactive: -0.012 | inactive: 0.033 | inactive: 0.017 | inactive: 0.032 | inactive: -0.016 | inactive: 0.031
TIMM44 (UniProt O43615) | inactive: 0 | inactive: -0.229 | inactive: 0.027 | inactive: -0.042 | inactive: -0.021 | active: -0.296 | inactive: -0.135 | inactive: 0.017 | inactive: -0.073 | inactive: -0.041

At a glance, part of the list above:
Target | log2 fold change [1] | log2 fold change [2] | log2 fold change [3] | log2 fold change [4] | log2 fold change [5] | log2 fold change [6] | log2 fold change [7] | log2 fold change [8] | log2 fold change [9] | log2 fold change [10]
TBL2 (UniProt Q9Y4P3) | inactive: 0.011 | inactive: 0.312 | inactive: 0.076 | inactive: 0.108 | inactive: 0.045 | inactive: 0.019 | inactive: 0.014 | inactive: -0.125 | inactive: 0.05 | inactive: -0.033
TBCB (UniProt Q99426) | inactive: 0.011 | inactive: -0.019 | inactive: 0.013 | inactive: 0.019 | inactive: -0.011 | inactive: -0.006 | inactive: 0.037 | inactive: -0.029 | inactive: 0.016 | inactive: -0.005
